{
  "source": "paper PMC12175430",
  "target": "T1, Epithelial splicing regulatory protein 1 (UniProt Q6NXG1)",
  "T1 sequence": "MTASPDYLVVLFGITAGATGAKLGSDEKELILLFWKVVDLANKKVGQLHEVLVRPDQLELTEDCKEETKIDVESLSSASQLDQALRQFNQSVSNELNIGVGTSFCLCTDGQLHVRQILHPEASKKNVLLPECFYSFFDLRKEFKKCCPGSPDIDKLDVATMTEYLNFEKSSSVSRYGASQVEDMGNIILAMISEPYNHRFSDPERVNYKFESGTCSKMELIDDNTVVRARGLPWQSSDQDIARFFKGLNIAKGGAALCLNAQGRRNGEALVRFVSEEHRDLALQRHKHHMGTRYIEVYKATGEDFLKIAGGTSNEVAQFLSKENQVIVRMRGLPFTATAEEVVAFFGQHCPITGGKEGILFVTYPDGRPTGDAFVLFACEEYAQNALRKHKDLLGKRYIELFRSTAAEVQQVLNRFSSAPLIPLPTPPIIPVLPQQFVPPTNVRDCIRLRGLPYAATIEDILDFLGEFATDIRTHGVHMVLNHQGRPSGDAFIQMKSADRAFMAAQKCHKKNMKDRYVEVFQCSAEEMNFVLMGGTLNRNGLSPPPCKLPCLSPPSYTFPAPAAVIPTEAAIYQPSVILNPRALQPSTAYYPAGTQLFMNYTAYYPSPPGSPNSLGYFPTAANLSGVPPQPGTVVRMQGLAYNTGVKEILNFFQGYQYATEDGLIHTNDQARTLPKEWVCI",
  "experiment": "co-IP; cells lysed in IP buffer with protease inhibitor; lysates incubated with antibodies overnight at 4 °C, then with protein A/G magnetic beads overnight at 4 °C; washed with PBST; Western blotting; cells and precipitating antibody not stated",
  "note": "These are yes or no findings as the source states them, for the method shown. In cells and extracts the contact can be indirect. Some results given as binding are weak or reduced against the parent protein; the word gives no strength.",
  "data": [
    {"binder": "7-dehydrocholesterol reductase (protein, UniProt Q9UBM7 1-475) MAAKSQPNIPKAKSLDGVTNDRTASQGQWGRAWEVDWFSLASVIFLLLFAPFIVYYFIMACDQYSCALTGPVVDIVTGHARLSDIWAKTPPITRKAAQLYTLWVTFQVLLYTSLPDFCHKFLPGYVGGIQEGAVTPAGVVNKYQINGLQAWLLTHLLWFANAHLLSWFSPTIIFDNWIPLLWCANILGYAVSTFAMVKGYFFPTSARDCKFTGNFFYNYMMGIEFNPRIGKWFDFKLFFNGRPGIVAWTLINLSFAAKQRELHSHVTNAMVLVNVLQAIYVIDFFWNETWYLKTIDICHDHFGWYLGWGDCVWLPYLYTLQGLYLVYHPVQLSTPHAVGVLLLGLVGYYIFRVANHQKDLFRRTDGRCLIWGRKPKVIECSYTSADGQRHHSKLLVSGFWGVARHFNYVGDLMGSLAYCLACGGGHLLPYFYIIYMAILLTHRCLRDEHRCASKYGRDWERYTAAVPYRLLPGIF", "values": [
      {"measurement": "binding", "result": "binds"}
    ]}
  ]
}
